Structures can show the parent of a compound that is named as a salt. The list shows a part of the results. The calls rarely recur for the same compound in another form.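 Kinases were expressed as nanoluciferase fusions in K562 cells and luminescence was read every 4 h between 2 and 18 h as percent of control, DMSO set to 100% and a positive control to 0%. A time point counts as decreased when the signal drops significantly (2 sigma). The hit call is the authors' own, does not follow from the count of time points alone, and its rule is not shown.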
How the values were obtained:
Test in all cases: number of time points (of 5) at which kinase-Nluc abundance scored as decreased, DMSO-normalised (count); higher = more persistent destabilization
Details in all cases: K562; 2-18 h
[1] = molecular target: FLT3 (UniProt P36888)
[2] = molecular target: FYN (UniProt P06241)
[3] = molecular target: GSK3A (UniProt P49840)
[4] = molecular target: HER2 (UniProt P04626)
[5] = molecular target: INSRR (UniProt P14616)
[6] = molecular target: IRAK3 (UniProt Q9Y616)
[7] = molecular target: JAK1 (UniProt P23458)
[8] = molecular target: LCK (UniProt P06239)
[9] = molecular target: LIMK1 (UniProt P53667)
[10] = molecular target: LIMK2 (UniProt P53671)

Sequences of proteins named here, by UniProt entry; tags and fusion partners are left off. A change or cut given only in a name is not applied to a line headed by its entry.
UniProt P36888, whole entry: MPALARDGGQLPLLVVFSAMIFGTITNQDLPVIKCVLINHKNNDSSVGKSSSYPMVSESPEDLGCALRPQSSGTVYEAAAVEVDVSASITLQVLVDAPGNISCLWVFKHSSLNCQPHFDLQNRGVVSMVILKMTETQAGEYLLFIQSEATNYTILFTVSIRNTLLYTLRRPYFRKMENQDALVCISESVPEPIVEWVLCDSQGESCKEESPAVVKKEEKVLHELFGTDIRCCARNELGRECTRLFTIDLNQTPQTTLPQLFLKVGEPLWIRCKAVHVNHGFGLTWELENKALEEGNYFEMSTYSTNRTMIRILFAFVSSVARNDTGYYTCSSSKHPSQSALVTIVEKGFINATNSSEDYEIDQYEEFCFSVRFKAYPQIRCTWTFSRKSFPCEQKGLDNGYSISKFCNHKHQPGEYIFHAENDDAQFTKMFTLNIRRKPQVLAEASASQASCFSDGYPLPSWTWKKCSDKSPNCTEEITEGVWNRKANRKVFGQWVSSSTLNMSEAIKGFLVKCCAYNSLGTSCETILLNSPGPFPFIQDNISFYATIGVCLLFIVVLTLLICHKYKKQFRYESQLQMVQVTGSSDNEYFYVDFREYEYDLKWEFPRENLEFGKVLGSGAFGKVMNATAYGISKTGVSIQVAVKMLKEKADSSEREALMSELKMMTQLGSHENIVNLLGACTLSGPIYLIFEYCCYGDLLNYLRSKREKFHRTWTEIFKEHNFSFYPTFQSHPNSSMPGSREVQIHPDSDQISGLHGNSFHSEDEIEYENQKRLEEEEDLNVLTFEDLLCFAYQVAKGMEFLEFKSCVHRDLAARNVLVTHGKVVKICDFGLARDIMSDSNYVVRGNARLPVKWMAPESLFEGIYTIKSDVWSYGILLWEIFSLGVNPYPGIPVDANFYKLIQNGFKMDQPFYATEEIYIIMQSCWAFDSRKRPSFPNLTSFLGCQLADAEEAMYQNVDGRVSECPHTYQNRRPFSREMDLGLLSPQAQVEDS
UniProt P06241, whole entry, looked up: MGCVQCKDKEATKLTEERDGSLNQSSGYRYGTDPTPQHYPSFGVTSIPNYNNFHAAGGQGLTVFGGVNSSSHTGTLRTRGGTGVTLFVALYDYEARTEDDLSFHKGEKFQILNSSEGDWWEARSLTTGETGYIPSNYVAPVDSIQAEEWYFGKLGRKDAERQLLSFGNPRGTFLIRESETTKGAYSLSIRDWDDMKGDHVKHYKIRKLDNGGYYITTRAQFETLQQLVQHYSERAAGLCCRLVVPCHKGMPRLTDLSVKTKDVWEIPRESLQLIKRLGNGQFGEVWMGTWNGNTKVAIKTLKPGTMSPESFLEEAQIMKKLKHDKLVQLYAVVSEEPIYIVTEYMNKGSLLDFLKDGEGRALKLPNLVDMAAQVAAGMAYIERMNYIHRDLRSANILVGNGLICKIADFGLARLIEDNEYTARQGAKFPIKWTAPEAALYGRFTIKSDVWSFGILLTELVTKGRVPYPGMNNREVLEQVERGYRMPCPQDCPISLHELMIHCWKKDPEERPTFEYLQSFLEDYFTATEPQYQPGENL
UniProt P49840: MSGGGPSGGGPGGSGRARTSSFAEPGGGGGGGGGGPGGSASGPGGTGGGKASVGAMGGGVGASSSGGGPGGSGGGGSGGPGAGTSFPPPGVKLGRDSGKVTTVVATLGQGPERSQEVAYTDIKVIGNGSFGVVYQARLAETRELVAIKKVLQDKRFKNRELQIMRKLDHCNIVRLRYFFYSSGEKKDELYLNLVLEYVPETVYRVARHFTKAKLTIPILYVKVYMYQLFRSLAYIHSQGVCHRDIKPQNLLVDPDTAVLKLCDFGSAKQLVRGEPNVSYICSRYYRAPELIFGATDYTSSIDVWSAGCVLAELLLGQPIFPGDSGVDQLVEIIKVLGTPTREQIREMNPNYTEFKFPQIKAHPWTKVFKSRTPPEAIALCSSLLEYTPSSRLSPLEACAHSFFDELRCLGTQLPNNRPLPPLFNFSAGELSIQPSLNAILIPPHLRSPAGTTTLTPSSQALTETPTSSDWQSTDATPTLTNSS
UniProt P14616: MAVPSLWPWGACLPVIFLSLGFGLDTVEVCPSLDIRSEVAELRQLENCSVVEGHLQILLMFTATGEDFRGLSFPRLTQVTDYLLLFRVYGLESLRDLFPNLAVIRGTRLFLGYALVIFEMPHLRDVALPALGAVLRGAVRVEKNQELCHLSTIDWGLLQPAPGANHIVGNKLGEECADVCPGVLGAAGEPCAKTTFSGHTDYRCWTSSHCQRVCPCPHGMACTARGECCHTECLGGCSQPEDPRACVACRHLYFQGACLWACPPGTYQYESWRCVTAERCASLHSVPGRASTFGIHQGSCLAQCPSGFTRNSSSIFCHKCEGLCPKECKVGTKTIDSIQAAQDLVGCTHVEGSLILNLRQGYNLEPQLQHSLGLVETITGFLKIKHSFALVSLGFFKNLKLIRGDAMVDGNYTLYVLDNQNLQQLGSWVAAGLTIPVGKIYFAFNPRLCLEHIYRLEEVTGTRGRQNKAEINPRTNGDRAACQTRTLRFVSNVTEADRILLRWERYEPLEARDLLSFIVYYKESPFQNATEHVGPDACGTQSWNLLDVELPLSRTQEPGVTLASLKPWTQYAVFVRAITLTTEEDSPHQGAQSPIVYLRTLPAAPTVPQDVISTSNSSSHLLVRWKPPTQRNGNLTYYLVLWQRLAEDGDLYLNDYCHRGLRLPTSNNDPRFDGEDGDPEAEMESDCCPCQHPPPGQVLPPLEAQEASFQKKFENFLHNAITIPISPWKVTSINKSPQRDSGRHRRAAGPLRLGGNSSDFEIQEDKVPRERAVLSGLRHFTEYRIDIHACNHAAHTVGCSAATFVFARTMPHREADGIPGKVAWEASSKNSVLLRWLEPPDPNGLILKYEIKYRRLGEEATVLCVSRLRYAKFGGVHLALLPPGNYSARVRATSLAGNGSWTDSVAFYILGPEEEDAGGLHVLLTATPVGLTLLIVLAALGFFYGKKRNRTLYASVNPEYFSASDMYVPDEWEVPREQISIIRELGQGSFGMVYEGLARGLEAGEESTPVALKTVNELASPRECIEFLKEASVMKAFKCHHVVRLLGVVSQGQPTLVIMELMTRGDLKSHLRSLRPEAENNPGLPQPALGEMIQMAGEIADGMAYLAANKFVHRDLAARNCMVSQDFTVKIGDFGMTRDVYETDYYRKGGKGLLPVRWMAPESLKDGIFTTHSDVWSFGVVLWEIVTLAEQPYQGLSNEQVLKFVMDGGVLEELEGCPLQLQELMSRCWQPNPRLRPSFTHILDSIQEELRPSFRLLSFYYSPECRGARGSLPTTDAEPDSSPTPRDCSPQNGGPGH
UniProt P23458: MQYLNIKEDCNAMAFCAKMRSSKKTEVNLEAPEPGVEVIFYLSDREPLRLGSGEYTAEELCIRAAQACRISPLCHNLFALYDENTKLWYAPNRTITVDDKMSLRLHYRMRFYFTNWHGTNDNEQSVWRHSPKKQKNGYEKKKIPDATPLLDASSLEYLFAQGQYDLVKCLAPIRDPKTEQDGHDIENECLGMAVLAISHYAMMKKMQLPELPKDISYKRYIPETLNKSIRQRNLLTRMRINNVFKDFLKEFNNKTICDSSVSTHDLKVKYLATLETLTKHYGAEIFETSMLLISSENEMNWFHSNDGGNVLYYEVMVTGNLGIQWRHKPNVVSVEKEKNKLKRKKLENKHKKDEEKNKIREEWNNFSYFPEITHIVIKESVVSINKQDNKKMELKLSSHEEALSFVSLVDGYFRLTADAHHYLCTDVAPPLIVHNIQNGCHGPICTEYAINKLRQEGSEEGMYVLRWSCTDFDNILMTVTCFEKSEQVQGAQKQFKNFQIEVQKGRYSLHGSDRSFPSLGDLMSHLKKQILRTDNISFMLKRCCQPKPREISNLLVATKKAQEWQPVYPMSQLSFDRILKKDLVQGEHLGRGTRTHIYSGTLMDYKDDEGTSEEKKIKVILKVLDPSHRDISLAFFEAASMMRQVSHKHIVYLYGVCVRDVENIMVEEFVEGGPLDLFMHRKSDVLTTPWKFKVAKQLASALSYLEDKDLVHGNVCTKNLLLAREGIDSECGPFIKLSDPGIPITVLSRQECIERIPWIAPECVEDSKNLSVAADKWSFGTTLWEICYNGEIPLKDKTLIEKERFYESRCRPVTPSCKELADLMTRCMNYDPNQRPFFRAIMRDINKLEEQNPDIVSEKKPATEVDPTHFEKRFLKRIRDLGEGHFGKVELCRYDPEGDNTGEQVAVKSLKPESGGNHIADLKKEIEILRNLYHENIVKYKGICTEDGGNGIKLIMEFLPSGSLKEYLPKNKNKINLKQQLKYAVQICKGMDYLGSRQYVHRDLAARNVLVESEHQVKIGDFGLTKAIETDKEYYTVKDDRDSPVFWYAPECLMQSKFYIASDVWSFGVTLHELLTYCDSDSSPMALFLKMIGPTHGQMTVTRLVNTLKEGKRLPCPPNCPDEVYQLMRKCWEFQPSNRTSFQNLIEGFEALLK
UniProt P06239: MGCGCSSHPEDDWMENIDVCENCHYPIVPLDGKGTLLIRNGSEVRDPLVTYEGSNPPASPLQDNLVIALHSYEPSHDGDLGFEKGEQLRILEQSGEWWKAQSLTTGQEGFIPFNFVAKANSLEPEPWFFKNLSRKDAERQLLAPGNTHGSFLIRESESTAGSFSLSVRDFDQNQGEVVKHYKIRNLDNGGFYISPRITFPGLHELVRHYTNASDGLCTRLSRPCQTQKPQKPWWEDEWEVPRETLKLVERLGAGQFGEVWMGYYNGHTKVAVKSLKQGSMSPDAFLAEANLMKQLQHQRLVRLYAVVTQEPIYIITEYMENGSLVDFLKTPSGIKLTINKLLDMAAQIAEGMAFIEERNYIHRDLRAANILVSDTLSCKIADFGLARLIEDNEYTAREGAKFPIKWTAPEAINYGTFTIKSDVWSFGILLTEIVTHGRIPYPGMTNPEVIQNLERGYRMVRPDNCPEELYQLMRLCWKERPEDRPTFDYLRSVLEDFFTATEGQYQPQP
UniProt P53667: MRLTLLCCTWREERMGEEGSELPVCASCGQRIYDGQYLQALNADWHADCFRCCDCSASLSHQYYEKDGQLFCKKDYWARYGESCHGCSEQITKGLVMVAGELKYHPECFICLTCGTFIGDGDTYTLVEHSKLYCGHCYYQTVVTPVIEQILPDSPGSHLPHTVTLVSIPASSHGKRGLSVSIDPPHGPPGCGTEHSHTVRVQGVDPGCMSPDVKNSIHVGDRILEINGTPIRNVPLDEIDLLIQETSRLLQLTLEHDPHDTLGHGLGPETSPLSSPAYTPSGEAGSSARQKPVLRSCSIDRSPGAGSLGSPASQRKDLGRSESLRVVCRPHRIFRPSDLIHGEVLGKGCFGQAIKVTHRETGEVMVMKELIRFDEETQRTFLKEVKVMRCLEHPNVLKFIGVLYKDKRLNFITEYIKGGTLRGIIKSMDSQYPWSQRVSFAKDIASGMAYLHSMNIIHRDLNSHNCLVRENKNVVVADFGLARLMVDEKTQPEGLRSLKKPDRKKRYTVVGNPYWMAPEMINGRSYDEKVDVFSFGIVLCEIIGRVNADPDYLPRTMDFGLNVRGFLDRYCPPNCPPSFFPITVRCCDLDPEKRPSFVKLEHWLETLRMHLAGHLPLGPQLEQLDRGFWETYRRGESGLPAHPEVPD
UniProt P53671: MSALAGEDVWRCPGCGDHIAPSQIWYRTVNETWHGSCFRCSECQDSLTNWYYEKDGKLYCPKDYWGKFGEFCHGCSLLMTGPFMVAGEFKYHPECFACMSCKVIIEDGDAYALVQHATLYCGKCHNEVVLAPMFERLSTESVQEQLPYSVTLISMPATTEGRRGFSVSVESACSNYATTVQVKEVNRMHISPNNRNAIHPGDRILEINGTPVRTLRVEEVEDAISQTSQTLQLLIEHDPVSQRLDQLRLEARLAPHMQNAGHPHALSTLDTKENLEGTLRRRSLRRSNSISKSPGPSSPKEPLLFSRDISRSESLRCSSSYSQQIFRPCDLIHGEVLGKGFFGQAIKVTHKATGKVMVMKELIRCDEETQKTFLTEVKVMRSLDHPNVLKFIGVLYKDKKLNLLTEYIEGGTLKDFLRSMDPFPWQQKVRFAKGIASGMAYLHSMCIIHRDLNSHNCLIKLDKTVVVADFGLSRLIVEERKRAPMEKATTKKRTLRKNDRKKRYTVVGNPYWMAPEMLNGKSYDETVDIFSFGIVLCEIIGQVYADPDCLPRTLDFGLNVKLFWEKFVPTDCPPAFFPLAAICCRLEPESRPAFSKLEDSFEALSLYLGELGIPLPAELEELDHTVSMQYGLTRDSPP

Measured: number of time points

Cc1ncc(-c2cc(F)c(O)c(F)c2)cc1-c1cc(F)c(O)c(F)c1 (10 µM)
0: all assays above

O=C1C=CC2=C3c4cc(O)c(O)cc4CC3(O)COC2=C1O (stereo not given) [Hematein] (10 µM)
0: all assays above

CNCc1ccccc1Sc1cccc2ccccc12 [IFN alpha-IFNAR-IN-1 (hydrochloride)] (10 µM)
1: [4] | [5] | [6]
3: [9]
0: all other assays above

Cn1cc(C2=C(c3ccc(Cl)cc3Cl)C(=O)NC2=O)c2ccccc21 (10 µM)
0: all assays above

CCc1cc(Nc2nccc(-c3c(-c4ccc(OC)c(C(=O)Nc5c(F)cccc5F)c4)nc4ccccn34)n2)c(OC)cc1N1CCC(N2CCN(S(C)(=O)=O)CC2)CC1 (2.5 µM)
4: [10]
0: all other assays above

Fc1ccc(Cl)cc1-c1nc(Nc2ccncc2)c2nccnc2n1 (10 µM)
0: all assays above

CN(C)CCOc1cc(-c2cn[nH]c2)ccc1NC(=O)C1COc2ccccc2O1 (stereo not given) (10 µM)
0: all assays above

COc1cc2nc(-c3cc(F)ccc3O)nc(N[C@@H]3CNC[C@H]3C(C)(C)O)c2cc1OC (2.5 µM)
0: all assays above

CN(C)CCn1cc2cc(NC(=O)c3cccc(C(F)(F)F)n3)c(C(C)(C)O)cc2n1 (10 µM)
0: all assays above

NC(=O)c1sc2c([N+](=O)[O-])cc(C(F)(F)F)cc2[n+]1[O-] [Cyclapolin 9] (10 µM)
0: all assays above

O=C(Nc1ccccc1C(=O)NC1CCCCNC1=O)c1cc2ccccc2s1 (stereo not given) (10 µM)
0: all assays above

NC(=O)c1cnc(N[C@@H]2CCCC[C@@H]2N)nc1Nc1cccc(-n2nccn2)c1 (2.5 µM)
1: [6]
0: all other assays above

Cc1nc(NC(=O)N2CCC[C@H]2C(N)=O)sc1-c1ccnc(C(C)(C)C(F)(F)F)c1 [Alpelisib] (2.5 µM)
0: all assays above

Cc1ccc2c(NS(=O)(=O)c3ccccc3Cl)cccc2c1Oc1ncccc1-c1ccnc(N[C@H]2CCCNC2)n1 (2.5 µM)
0: all assays above

O=C(NC[C@H](O)CO)c1ccncc1Nc1ccc(I)cc1F [Pimasertib] (10 µM)
2: [5]
1: [10]
0: all other assays above

CCOC(=O)c1c(C)[nH]c(C=C2C(=O)Nc3ccccc32)c1C (10 µM)
0: all assays above

CC(C1CC1)n1cnc2c(NCc3cccc(C(F)(F)F)c3)nc(NCCN(C)C)nc21 (stereo not given) (10 µM)
0: all assays above

Nc1ccc(C(=O)Nc2cccc(-c3nc(N4CCOCC4)c4oc5ncccc5c4n3)c2)cn1 (10 µM)
3: [1]
0: all other assays above

O=C(Nc1ccc(Cl)cc1)C1CN(C(=O)c2cccc(-c3ccco3)c2)CC(F)(F)C1 (stereo not given) (2.5 µM)
1: [1]
0: all other assays above

CC/C(=C(\c1ccccc1)c1ccc(OCCNC)cc1)c1ccccc1 [N-Desmethyltamoxifen (hydrochloride)] (2.5 µM)
0: all assays above

CN(C[C@@H]1COCCO1)S(=O)(=O)Nc1ccc2ccc3ncc(-c4cnn(C)c4)cc3c(=O)c2c1 (2.5 µM)
0: all assays above

N#Cc1cc(-c2ccnc(Nc3ccc(N4CCOCC4)cc3)n2)ccc1OC1CCOCC1 (10 µM)
5: [4]
0: all other assays above

Cc1nc2c(NCc3cccc(S(C)(=O)=O)c3)nccn2c1-c1ccc(O)c(F)c1 (10 µM)
0: all assays above

CC(C)(C)S(=O)(=O)c1cc2c(Nc3ccc4scnc4c3)ncnc2cc1OCCOP(=O)(O)O (2 µM)
0: all assays above

CS(=O)(=O)c1ccc([C@@H](CC2CCCC2)C(=O)Nc2nccs2)cc1 (10 µM)
0: all assays above

NC(=O)c1ccccc1Nc1ccnc(Nc2cccc(O)c2)n1 (10 µM)
3: [1] | [2] | [6]
4: [7] | [9]
0: all other assays above

CN1CCN(c2ccc(-c3ccncc3-c3cc(F)c(O)c(F)c3)cc2)CC1 (10 µM)
0: all assays above

CC(C)n1cnc2c(Nc3cccc(Cl)c3)nc(N[C@H]3CCCC[C@@H]3N)nc21 (2.5 µM)
0: all assays above

O=c1cc(N2CCOCC2)oc2c(-c3cccc4c3sc3ccccc34)cccc12 (10 µM)
0: all assays above

O=C(Nc1ccc(F)cc1F)C(NC(=S)Nc1cc(C(F)(F)F)cc(C(F)(F)F)c1)c1ccccc1 (racemic) (2.5 µM)
0: all assays above

Cc1ccc(C2CC(=O)NC(SCC(=O)Nc3nccs3)=C2C#N)cc1 (stereo not given) [Necrostatin-34] (10 µM)
0: all assays above

COC(=O)N1CCN(C2CCC(Nc3nc(Nc4cnn(C)c4)nc4ccc(CC#N)nc34)CC2)CC1 (stereo not given) (10 µM)
0: all assays above

COc1cc2c(cc1OC)[C@@H]1C(=O)c3ccc4c(c3O[C@@H]1CO2)C=CC(C)(C)O4 [Deguelin] (10 µM)
0: all assays above

CCOC(=O)c1c(N2CCc3ccc(OC)cc3C2)oc(C=C2C=Nc3ncccc32)c1O (10 µM)
0: all assays above

Oc1ccc(-c2cnc3ccc(NCc4ccco4)nn23)cc1 [IRAK inhibitor 2] (2.5 µM)
1: [2] | [9]
0: all other assays above

O=c1cc(-c2ccc(O[C@@H]3O[C@H](CO)[C@@H](O)[C@H](O)[C@H]3O)cc2)oc2cc(O)c([C@@H]3O[C@H](CO)[C@@H](O)[C@H](O)[C@H]3O[C@@H]3OC[C@H](O)[C@H](O)[C@H]3O)c(O)c12 [Vaccarin] (10 µM)
0: all assays above

CC(=O)Nc1nc(C)c(-c2cc(C)c3c(c2)CN([C@@H](C)C2CC2)C3=O)s1 (10 µM)
0: all assays above
